This passage reports binding results from publication PMC12335937.

Sequences of proteins named here, by UniProt entry; tags and fusion partners are left off.
UniProt Q86U44: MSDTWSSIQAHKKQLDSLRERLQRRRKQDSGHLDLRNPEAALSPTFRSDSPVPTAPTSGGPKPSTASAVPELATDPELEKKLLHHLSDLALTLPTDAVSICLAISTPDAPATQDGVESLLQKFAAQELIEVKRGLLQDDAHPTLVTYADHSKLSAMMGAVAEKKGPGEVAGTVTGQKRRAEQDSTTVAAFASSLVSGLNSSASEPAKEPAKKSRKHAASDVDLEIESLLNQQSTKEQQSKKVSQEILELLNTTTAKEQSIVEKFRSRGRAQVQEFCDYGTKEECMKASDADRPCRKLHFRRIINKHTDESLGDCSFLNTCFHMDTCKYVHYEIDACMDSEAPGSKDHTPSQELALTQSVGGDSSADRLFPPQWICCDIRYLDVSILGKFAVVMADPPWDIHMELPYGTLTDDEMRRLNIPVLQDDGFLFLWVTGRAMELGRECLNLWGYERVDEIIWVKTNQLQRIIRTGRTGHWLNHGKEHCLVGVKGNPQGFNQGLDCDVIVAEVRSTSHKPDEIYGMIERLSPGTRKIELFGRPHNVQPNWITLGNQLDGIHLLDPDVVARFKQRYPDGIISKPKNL

These are yes or no findings as the source states them, for the method shown. Binding seen in cells or lysates may run through a third protein. Some results given as binding are weak or reduced against the parent protein; the word gives no strength. For some assays here: Sequences can lack the tags named with a protein.

One test deals with Flag-METTL3 (UniProt Q86U44). The test is described as follows: co-IP; GBC-SD cells transfected with Flag-METTL3 or Flag-METTL14; lysate in IP buffer, treated with or without RNase A (20 μg/mL); anti-METTL3 or anti-METTL14 antibody with Protein A/G magnetic beads, 4°C, 6 h; western blot.
The target of a further test is T1, Flag-METTL14 (UniProt Q9HCE5).
T1 sequence: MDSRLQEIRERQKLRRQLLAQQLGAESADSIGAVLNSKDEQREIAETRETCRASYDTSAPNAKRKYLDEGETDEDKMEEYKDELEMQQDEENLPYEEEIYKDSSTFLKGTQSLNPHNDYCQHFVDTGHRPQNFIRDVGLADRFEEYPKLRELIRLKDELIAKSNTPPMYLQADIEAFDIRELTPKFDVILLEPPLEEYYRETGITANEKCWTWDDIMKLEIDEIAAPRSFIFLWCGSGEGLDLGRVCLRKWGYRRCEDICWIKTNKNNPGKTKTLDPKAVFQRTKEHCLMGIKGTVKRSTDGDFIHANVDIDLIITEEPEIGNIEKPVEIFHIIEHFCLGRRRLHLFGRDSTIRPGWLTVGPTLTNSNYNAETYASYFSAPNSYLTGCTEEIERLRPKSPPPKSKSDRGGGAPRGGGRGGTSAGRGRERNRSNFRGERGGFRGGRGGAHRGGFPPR
The description is as above.

B1: DGCR8 (protein, UniProt Q8WYQ5 1-773)
chain: METDESPSPLPCGPAGEAVMESRARPFQALPREQSPPPPLQTSSGAEVMDVGSGGDGQSELPAEDPFNFYGASLLSKGSFSKGRLLIDPNCSGHSPRTARHAPAVRKFSPDLKLLKDVKISVSFTESCRSKDRKVLYTGAERDVRAECGLLLSPVSGDVHACPFGGSVGDGVGIGGESADKKDEENELDQEKRVEYAVLDELEDFTDNLELDEEGAGGFTAKAIVQRDRVDEEALNFPYEDDFDNDVDALLEEGLCAPKKRRTEEKYGGDSDHPSDGETSVQPMMTKIKTVLKSRGRPPTEPLPDGWIMTFHNSGVPVYLHRESRVVTWSRPYFLGTGSIRKHDPPLSSIPCLHYKKMKDNEEREQSSDLTPSGDVSPVKPLSRSAELEFPLDEPDSMGADPGPPDEKDPLGAEAAPGALGQVKAKVEVCKDESVDLEEFRSYLEKRFDFEQVTVKKFRTWAERRQFNREMKRKQAESERPILPANQKLITLSVQDAPTKKEFVINPNGKSEVCILHEYMQRVLKVRPVYNFFECENPSEPFGASVTIDGVTYGSGTASSKKLAKNKAARATLEILIPDFVKQTSEEKPKDSEELEYFNHISIEDSRVYELTSKAGLLSPYQILHECLKRNHGMGDTSIKFEVVPGKNQKSEYVMACGKHTVRGWCKNKRVGKQLASQKILQLLHPHVKNWGSLLRMYGRESSKMVKQETSDKSVIELQQYAKKNKPNLHILSKLQEEMKRLAEEREETRKKPKMSIVASAQPGGEPLCTVDV
In the case of B1, the binding result with Flag-METTL3 and with Flag-METTL14 was “binds” in each case.
